# Measurements reported in PubChem BioAssay AID504764 (Drosophila RNAi Screening Center, 2011).
# Test: 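Genes whose knock-down alters Notch-dependent transcription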 (primary screen)
# Cells: Drosophila Kc167 cells
# Reagents: long dsRNA against Drosophila genes
# Timing: about 5 days (4 days dsRNA, then 24 h after transfection)
# Conditions: transfection of constitutively active membrane-tethered Notch lacking the extracellular domain, read 24 h later
# Detection: 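Firefly luciferase from an E(spl)m3 reporter with active Notch, plus control-promoter and uninduced reporter wells for normalisation; unnormalised counts, duplicate wells a and b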
# Scale: induced reporter light, run 1, well a and induced reporter light, run 1, well b: higher = more light from the Notch target reporter with active Notch; control promoter light, run 1, well a and control promoter light, run 1, well b: higher = more light from the viral control promoter (cell number, transfection, viability); uninduced reporter light, run 1, well a: higher = more light from the Notch target reporter without active Notch
# Rule for the call: 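Wells with low control signal or poorly matching duplicates excluded; duplicates averaged; per source plate, z beyond ±2 for induced/control log2 ratio or beyond ±1.8 for induced/uninduced marks a hit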
# Calls: active = modifier hit (raised or lowered Notch signal); inactive = not a hit
# The screen tested about 22,000 reagents; below is an unselected part of those with a known target gene and a result. Of all reagents, 403 (1.9%) are marked active. 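Unnormalised raw counts per well; ratio z-scores behind the hit calls and whether each hit raises or lowers signal are not deposited.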 Not given: the amount of reagent.
gene knocked down,amplicon,"induced reporter light, run 1, well a","induced reporter light, run 1, well b","control promoter light, run 1, well a","control promoter light, run 1, well b","uninduced reporter light, run 1, well a",outcome
Ilp3 (GeneID 39151),DRSC10168,1.83e5,1.82e5,3.02e5,2.52e5,11555,inactive
Ypel (GeneID 31949),DRSC17996,2.13e5,1.68e5,2.57e5,3.09e5,11800,inactive
rdgA (GeneID 31826),DRSC17863,1.40e5,1.49e5,2.90e5,3.39e5,11895,inactive
rdgA (GeneID 31826),DRSC18036,1.49e5,1.89e5,3.39e5,2.55e5,10085,inactive
rdgA (GeneID 31826),DRSC18827,2.50e5,1.99e5,1.81e5,1.99e5,11865,active
CG15563 (GeneID 43695),DRSC15101,1.40e5,1.25e5,2.16e5,1.65e5,10880,inactive
Ppa (GeneID 37602),DRSC04598,1.39e5,1.24e5,1.52e5,1.44e5,10595,inactive
CG31365 (GeneID 42736),DRSC15610,2.22e5,1.93e5,1.78e5,2.02e5,17040,inactive
Art9 (GeneID 41698),DRSC16584,2.62e5,2.31e5,2.07e5,2.09e5,20380,inactive
prage (GeneID 31136),DRSC17957,57230,61375,1.10e5,1.06e5,5075,inactive
prage (GeneID 31136),DRSC17958,42735,66560,17942,24470,6465,inactive
prage (GeneID 31136),DRSC18490,1.02e5,1.10e5,1.69e5,1.90e5,7632,inactive
prage (GeneID 31136),DRSC18497,1.07e5,1.17e5,1.65e5,1.69e5,8545,inactive
CG13407 (GeneID 42599),DRSC14583,1.78e5,1.55e5,1.67e5,1.71e5,12735,inactive
tHMG2 (GeneID 42651),DRSC16182,1.66e5,1.88e5,1.91e5,1.84e5,12715,inactive
mrj (GeneID 36797),DRSC22592,,,,,,inactive
CG13841 (GeneID 50061),DRSC14691,1.44e5,1.29e5,1.62e5,1.41e5,8820,inactive
CG13955 (GeneID 35968),DRSC06443,2.08e5,1.92e5,1.82e5,2.22e5,19680,inactive
CG5768 (GeneID 42915),DRSC15870,1.09e5,1.19e5,1.00e5,1.19e5,10432,inactive
Fad2 (GeneID 44006),DRSC11165,1.47e5,1.44e5,3.19e5,2.19e5,7540,inactive
firl (GeneID 34627),DRSC02428,1.37e5,1.68e5,1.61e5,1.87e5,13410,inactive
RhoL (GeneID 41136),DRSC16824,1.43e5,1.77e5,1.04e5,1.03e5,10545,inactive

Called active (from the list above):
gene knocked down,amplicon,"induced reporter light, run 1, well a","induced reporter light, run 1, well b","control promoter light, run 1, well a","control promoter light, run 1, well b","uninduced reporter light, run 1, well a",outcome
rdgA (GeneID 31826),DRSC18827,2.50e5,1.99e5,1.81e5,1.99e5,11865,active

The list goes on.
gene knocked down,amplicon,"induced reporter light, run 1, well a","induced reporter light, run 1, well b","control promoter light, run 1, well a","control promoter light, run 1, well b","uninduced reporter light, run 1, well a",outcome
CG32599 (GeneID 318108),DRSC19433,1.90e5,1.67e5,1.67e5,1.95e5,11732,inactive
Lrp4 (GeneID 32552),DRSC20118,1.22e5,1.32e5,1.60e5,1.42e5,8135,inactive
M6 (GeneID 40383),DRSC11869,1.06e5,94830,1.06e5,91770,6460,inactive
Mys45A (GeneID 35925),DRSC07067,97330,1.08e5,1.10e5,1.08e5,9082,inactive
ND-B17 (GeneID 34925),DRSC01981,96855,91720,1.16e5,1.43e5,7630,inactive
Ncoa6 (GeneID 33761),DRSC02353,8290,8178,8790,9960,2575,inactive
Ttc1 (GeneID 41993),DRSC15016,2.23e5,2.43e5,2.32e5,2.20e5,18000,inactive
Muc11A (GeneID 32174),DRSC19498,1.37e5,1.41e5,2.80e5,2.98e5,10325,inactive
CG7049 (GeneID 38022),DRSC08587,50265,44245,67175,64760,3170,inactive
Tbc1d15-17 (GeneID 33184),DRSC00313,1.57e5,1.84e5,2.41e5,2.61e5,17038,inactive
CG9636 (GeneID 40967),DRSC16529,93105,1.18e5,83725,87345,8730,inactive
CG32801 (GeneID 31152),DRSC17964,1.03e5,1.04e5,1.71e5,1.69e5,7360,inactive
